For some assays here: At least one read-out could not be matched to a standard name with certainty. For some assays here: For at least one compound, name, drawing or mass did not settle the structure.
How the values were obtained:
[1] = tested on: HMGN1 secreted from senescent A549 cells; assay: HMGN1 secretion (ELISA) from senescent A549 cells, Example 18, Table 14; format: cell-based, human; settings: doxorubicin-senescent A549, without test compound (DMSO) = 100%; 30 μM (LX-5211, LX-5433, LX-6530, LX-6800, LX-9105, LX-9118, LX-9131, LX-9136, LX-9302, LX-9321, LX-9565, LX-9602 at 90 μM; LX-9336 at 2.4 mM)
[2] = tested on: HMGN1 secreted from senescent cells; assay: HMGN1 secretion (ELISA) from doxorubicin-induced senescent cells, Example 17; format: cell-based, human; settings: senescent untreated = 100%; 30 μM; 90 μM for LX-5211, 5433, 6530, 9105, 9118, 9321, 9602; 2.4 mM for LX-9336
senescent human cells = assay: Senescent cell survival with supernatant from death-induced cells, Example 32, Table 58; format: cell-based; settings: supernatants containing secretions from death-induced cells treated with test compound at high concentrations of 30 M and 90 μM, respectively

## N[C@@H](CCC(=O)N[C@@H](CS(=O)(=O)CCOP(=O)(N(CCCl)CCCl)N(CCCl)CCCl)C(=O)N[C@@H](C(=O)O)c1ccccc1)C(=O)O [LX-7463, Canfosfamide]
[1]
  HMGN1: 248%
[2]
  HMGN1: 222%

## COC[C@]1(CO)C(=O)[C@H]2CC[N@]1[C@H](C)C2 [LX-5731, (1R,2R,4S,6R)-2-(hydroxymethyl)-2-(methoxymethyl)-6-methylquinuclidin-3-one]
Senescent human cells
  HMGN1 (cell viability results): 37.1 (±6.4)

## CC(C)C[C@H](CN)CC(=O)O [LX-9131, Pregabalin]
[1]
  HMGN1: 276%
[2]
  HMGN1: 330%
